At least one compound was matched to its structure with a doubt left.
What was measured:
Type in all cases: cell-based, human
VK2/E6E7 cells [1] = test: Western blot analysis of protein expression and phosphorylation
Procedure: (§1) To analyze protein expression related to the development of endometriosis following fraxetin treatment, the inventors conducted western blot analysis.
(§2) Briefly, endometrial cells were treated with fraxetin in a dose-dependent manner or in combination with signaling pathway inhibitors. Total proteins were extracted from the treated cells, and protein quantification was performed using the Bradford protein assay (Bio-Rad, Hercules, CA, USA). The extracted proteins were then denatured at 95° C. for 5 minutes and subjected to electrophoresis on a 10% SDS/PAGE gel before being transferred to a nitrocellulose membrane. The membrane was subsequently incubated with primary and secondary antibodies, and target protein expression was analyzed using chemiluminescence detection reagents (Supersignal West Pico, Pierce, Rockford, IL, USA) with the ChemiDoc EQ system and Quantity One software (Bio-Rad).

End1/E6E7 cells [2] = test: as above; details: End1/E6E7, inhibitor 20 μM
Procedure: as §1, §2

VK2/E6E7 cells [3] = test: Cell viability with signaling pathway inhibitors alone or combined with fraxetin; details: wortmannin 1 μM, U0126 20 μM
Procedure: (§3) The AKT inhibitor wortmannin (1 μM), ERK1/2 inhibitor U0126 (20 μM), and JNK inhibitor SP600125 (20 μM) were used.

End1/E6E7 cells [4] = test: as above; details: wortmannin 1 μM, U0126 20 μM
Procedure: as §3

Oc1c2ccccc2c2c3c(cccc13)N=N2 [SP600125, reference compound]
S6 phosphorylation, combined with fraxetin compared to fraxetin alone (VK2/E6E7 cells [1]; VK2/E6E7, inhibitor 20 μM): further downregulated | S6 phosphorylation, combined with fraxetin compared to fraxetin alone (End1/E6E7 cells [2]): further downregulated

COC[C@H]1OC(=O)c2coc3c2[C@@]1(C)C1=C(C3=O)[C@@H]2CCC(=O)[C@@]2(C)C[C@H]1OC(C)=O [wortmannin, reference compound]
JNK phosphorylation (VK2/E6E7 cells [1]; VK2/E6E7, wortmannin 1 μM): increased | cell viability, combined treatment with fraxetin compared to inhibitor alone (VK2/E6E7 cells [3]): marked decrease | cell viability, combined treatment with fraxetin compared to inhibitor alone (End1/E6E7 cells [4]): marked decrease

Reference: patent US20250302799A1, “PHARMACEUTICAL COMPOSITION CONTAINING FRAXETIN FOR PREVENTION OR TREATMENT OF ENDOMETRIOSIS” (Research & Business Foundation Sungkyunkwan University, priority 2024, published 2025)
